# Laboratory results taken from patent US20170189504A1, “NOVEL PEPTIDES AND COMBINATION OF PEPTIDES FOR USE IN IMMUNOTHERAPY AGAINST VARIOUS CANCERS” (immatics biotechnologies GmbH, priority 2015, published 2017).
# For some assays here: For expression read-outs the peptide stands for its source gene, whose mRNA was measured; the gene is not named for every peptide.
# Legend:
# HLA-A*02 = assay: Identification and relative LC-MS quantitation of HLA-A*02-presented tumor-associated peptides on tissue samples (presentation profiles, Tables 13A, 13B, 15, FIG. 1); parameters: species or system human; key to Presentation score NHL / Presentation score CLL / Presentation score BRCA / Presentation score AML / Presentation score GB / Presentation score NSCLC / Presentation score GBC_CCC / Presentation score UEC / Presentation score MEL / Presentation score OSCAR / Presentation score GC / Presentation score UBC / Presentation score OC / Presentation score RCC / Presentation score CRC / Presentation score PCA / Presentation score HCC / Presentation score PC / Presentation score SCLC: specifically presented on tumors (++++); very highly over-presented on tumors compared to a panel of normal tissues (+++); highly over-presented on tumors compared to a panel of normal tissues (++); over-presented on tumors compared to a panel of normal tissues (+); conditions: for Presentation score CLL: chronic lymphocytic leukemia (N = 17) vs panel of normal tissues (N = 262); for Presentation score GBC_CCC: gallbladder adenocarcinoma and cholangiocarcinoma (N = 6) vs panel of normal tissues (N = 262); for Presentation score NHL: non-Hodgkin lymphoma (N = 18) vs panel of normal tissues (N = 262); for Peptide Presentation on cancer entities: HLA-A*02-binding tumor-associated peptides
# source genes (mRNA) [1] = assay: Gene and exon expression of source genes, TCGA tumor samples compared with normal tissue samples (Lonsdale, 2013) (Table 17); parameters: species or system human; conditions: for Over-expression category of source gene (target coverage), BLCA: BLCA = Bladder urothelial carcinoma (N = 408); for Over-expression category of source gene (target coverage), BRCA: BRCA = Breast cancer (N = 1104), tumors more than 2-fold above highest 75% percentile of normal tissues; for Over-expression category of source gene (target coverage), COAD: COAD = Colon and rectal adenocarcinoma (N = 462); for Over-expression category of source gene (target coverage), DLBC: DLBC = Lymphoid neoplasm diffuse large B-cell lymphoma (N = 48); for Over-expression category of source gene (target coverage), ESCA: ESCA = Esophageal cancer (N = 185); for Over-expression category of source gene (target coverage), GBM: GBM = Glioblastoma multiforme (N = 169); for Over-expression category of source gene (target coverage), LAML: LAML = Acute Myeloid Leukemia (N = 173); for Over-expression category of source gene (target coverage), LUAD: LUAD = Lung adenocarcinoma (N = 517); for Over-expression category of source gene (target coverage), LUSC: LUSC = Lung squamous cell carcinoma (N = 503); for Over-expression category of source gene (target coverage), OV: OV = Ovarian serous cystadenocarcinoma (N = 309); for Over-expression category of source gene (target coverage), READ: READ = Colon and rectal adenocarcinoma (N = 167); for Over-expression category of source gene (target coverage), SKCM: SKCM = Skin cutaneous melanoma (N = 473); for Over-expression category of source gene (target coverage), STAD: STAD = Stomach adenocarcinoma (N = 415); for Over-expression category of source gene (target coverage), UCEC: UCEC = Uterine corpus endometrial carcinoma (N = 546)
# source genes (mRNA) [2] = assay: Expression profiling of source genes by in-house RNASeq of tumor and normal tissues (Table 18, FIG. 2); parameters: species or system human; key: very highly over-expressed in tumors compared to a panel of normal tissues (+++); highly over-expressed in tumors compared to a panel of normal tissues (++); over-expressed in tumors compared to a panel of normal tissues (+); conditions: source gene of peptide; for Expression score BRCA: BRCA tumors vs panel of normal tissues; for Expression score AML: acute myeloid leukemia (N = 11) vs panel of normal tissues; for Expression score CRC: colorectal cancer (N = 20) vs panel of normal tissues; for Expression score OSCAR: esophageal cancer incl. gastric-esophageal junction (N = 11) vs panel of normal tissues; for Expression score GBC_CCC: gallbladder adenocarcinoma and cholangiocarcinoma (N = 3) vs panel of normal tissues; for Expression score GB: glioblastoma (N = 24) vs panel of normal tissues; for Expression score NHL: non-Hodgkin lymphoma (N = 10) vs panel of normal tissues; for Expression score NSCLC: non-small cell lung cancer (N = 11) vs panel of normal tissues; for Expression score OC: ovarian cancer (N = 12) vs panel of normal tissues; for Expression score SCLC: small cell lung cancer (N = 10) vs panel of normal tissues
# [3] = Table 13A, cancer entities on which the peptide was found presented
# [4] = Table 13B, presentation on additional cancer entities
substance,measurement,setting,value
155: peptide found in PRKDC (gene looked up) (LLNPVVEFV; listed as Homo sapiens) [compound 155],Presentation score CLL,HLA-A*02; HLA-A*02 peptides,+++
same,Presentation score GBC_CCC,HLA-A*02; HLA-A*02 peptides,++
same,Presentation score NHL,HLA-A*02; HLA-A*02 peptides,+
same,Peptide Presentation on cancer entities,HLA-A*02; [3],"CLL, OC, GBC_CCC, NHL"
same,Peptide Presentation on cancer entities,HLA-A*02; [4],"NSCLC, HCC, BRCA, CRC, HNSCC"
same,"Over-expression category of source gene (target coverage), BLCA",source genes (mRNA) [1]; same cutoff,"B (>= 20% of tumors above the cutoff, but <50%)"
same,"Over-expression category of source gene (target coverage), BRCA",source genes (mRNA) [1],A (>=50% of tumors above the cutoff)
same,"Over-expression category of source gene (target coverage), CHOL","source genes (mRNA) [1]; CHOL = Cholangiocarcinoma (N = 36), same cutoff","C (>=5% of tumors above the cutoff, but <20%)"
same,"Over-expression category of source gene (target coverage), COAD",source genes (mRNA) [1]; same cutoff,"B (>= 20% of tumors above the cutoff, but <50%)"
same,"Over-expression category of source gene (target coverage), DLBC",source genes (mRNA) [1]; same cutoff,"C (>=5% of tumors above the cutoff, but <20%)"
same,"Over-expression category of source gene (target coverage), ESCA",source genes (mRNA) [1]; same cutoff,A (>=50% of tumors above the cutoff)
same,"Over-expression category of source gene (target coverage), GBM",source genes (mRNA) [1]; same cutoff,"C (>=5% of tumors above the cutoff, but <20%)"
same,"Over-expression category of source gene (target coverage), KICH","source genes (mRNA) [1]; KICH = Kidney chromophobe (N = 66), same cutoff","C (>=5% of tumors above the cutoff, but <20%)"
same,"Over-expression category of source gene (target coverage), KIRC","source genes (mRNA) [1]; KIRC = Clear cell kidney carcinoma (N = 534), same cutoff","C (>=5% of tumors above the cutoff, but <20%)"
same,"Over-expression category of source gene (target coverage), KIRP","source genes (mRNA) [1]; KIRP = Papillary kidney carcinoma (N = 291), same cutoff","C (>=5% of tumors above the cutoff, but <20%)"
same,"Over-expression category of source gene (target coverage), LAML",source genes (mRNA) [1]; same cutoff,A (>=50% of tumors above the cutoff)
same,"Over-expression category of source gene (target coverage), LGG","source genes (mRNA) [1]; LGG = Lower grade glioma (N = 534), same cutoff","B (>= 20% of tumors above the cutoff, but <50%)"
same,"Over-expression category of source gene (target coverage), LUAD",source genes (mRNA) [1]; same cutoff,"B (>= 20% of tumors above the cutoff, but <50%)"
same,"Over-expression category of source gene (target coverage), LUSC",source genes (mRNA) [1]; same cutoff,A (>=50% of tumors above the cutoff)
same,"Over-expression category of source gene (target coverage), OV",source genes (mRNA) [1]; same cutoff,"B (>= 20% of tumors above the cutoff, but <50%)"
same,"Over-expression category of source gene (target coverage), PAAD","source genes (mRNA) [1]; PAAD = Pancreatic ductal adenocarcinoma (N = 179), same cutoff","C (>=5% of tumors above the cutoff, but <20%)"
same,"Over-expression category of source gene (target coverage), PRAD","source genes (mRNA) [1]; PRAD = Prostate adenocarcinoma (N = 498), same cutoff","C (>=5% of tumors above the cutoff, but <20%)"
same,"Over-expression category of source gene (target coverage), READ",source genes (mRNA) [1]; same cutoff,"B (>= 20% of tumors above the cutoff, but <50%)"
same,"Over-expression category of source gene (target coverage), SKCM",source genes (mRNA) [1]; same cutoff,A (>=50% of tumors above the cutoff)
same,"Over-expression category of source gene (target coverage), STAD",source genes (mRNA) [1]; same cutoff,A (>=50% of tumors above the cutoff)
same,"Over-expression category of source gene (target coverage), UCEC",source genes (mRNA) [1]; same cutoff,"C (>=5% of tumors above the cutoff, but <20%)"
same,Expression score BRCA,source genes (mRNA) [2],+
same,Expression score AML,source genes (mRNA) [2],+
same,Expression score CRC,source genes (mRNA) [2],+
same,Expression score OSCAR,source genes (mRNA) [2],+
same,Expression score GBC_CCC,source genes (mRNA) [2],+
same,Expression score GB,source genes (mRNA) [2],+
same,Expression score NHL,source genes (mRNA) [2],+
same,Expression score NSCLC,source genes (mRNA) [2],+
same,Expression score OC,source genes (mRNA) [2],+
same,Expression score SCLC,source genes (mRNA) [2],+
230: peptide found in HELLS (gene looked up) (KLQNIMMLL; listed as Homo sapiens) [compound 230],Presentation score AML,"HLA-A*02; HLA-A*02 peptides, acute myeloid leukemia (N = 18) vs panel of normal tissues (N = 262)",++++
same,Presentation score BRCA,"HLA-A*02; HLA-A*02 peptides, breast cancer (N = 17) vs panel of normal tissues (N = 262)",++++
same,Presentation score CLL,HLA-A*02; HLA-A*02 peptides,++++
same,Presentation score CRC,"HLA-A*02; HLA-A*02 peptides, colorectal cancer (N = 28) vs panel of normal tissues (N = 262)",++++
same,Presentation score GBC_CCC,HLA-A*02; HLA-A*02 peptides,++++
same,Presentation score HCC,"HLA-A*02; HLA-A*02 peptides, hepatocellular carcinoma (N = 16) vs panel of normal tissues (N = 262)",++++
same,Presentation score NHL,HLA-A*02; HLA-A*02 peptides,++++
same,Presentation score NSCLC,"HLA-A*02; HLA-A*02 peptides, non-small cell lung cancer (N = 90) vs panel of normal tissues (N = 262)",++++
same,Presentation score RCC,"HLA-A*02; HLA-A*02 peptides, renal cell carcinoma (N = 20) vs panel of normal tissues (N = 262)",++++
same,Presentation score UBC,"HLA-A*02; HLA-A*02 peptides, urinary bladder cancer (N = 16) vs panel of normal tissues (N = 262)",++++
same,Peptide Presentation on cancer entities,HLA-A*02; [3],"NSCLC, HCC, CLL, UBC, BRCA, GBC_CCC, RCC, CRC, AML, NHL"
same,Peptide Presentation on cancer entities,HLA-A*02; [4],HNSCC
same,"Over-expression category of source gene (target coverage), BLCA",source genes (mRNA) [1]; same cutoff,"B (>= 20% of tumors above the cutoff, but <50%)"
same,"Over-expression category of source gene (target coverage), BRCA",source genes (mRNA) [1],"B (>= 20% of tumors above the cutoff, but <50%)"
same,"Over-expression category of source gene (target coverage), COAD",source genes (mRNA) [1]; same cutoff,"B (>= 20% of tumors above the cutoff, but <50%)"
same,"Over-expression category of source gene (target coverage), DLBC",source genes (mRNA) [1]; same cutoff,A (>=50% of tumors above the cutoff)
same,"Over-expression category of source gene (target coverage), ESCA",source genes (mRNA) [1]; same cutoff,A (>=50% of tumors above the cutoff)
same,"Over-expression category of source gene (target coverage), GBM",source genes (mRNA) [1]; same cutoff,"C (>=5% of tumors above the cutoff, but <20%)"
same,"Over-expression category of source gene (target coverage), LAML",source genes (mRNA) [1]; same cutoff,A (>=50% of tumors above the cutoff)
same,"Over-expression category of source gene (target coverage), LUAD",source genes (mRNA) [1]; same cutoff,"C (>=5% of tumors above the cutoff, but <20%)"
same,"Over-expression category of source gene (target coverage), LUSC",source genes (mRNA) [1]; same cutoff,"B (>= 20% of tumors above the cutoff, but <50%)"
same,"Over-expression category of source gene (target coverage), OV",source genes (mRNA) [1]; same cutoff,"C (>=5% of tumors above the cutoff, but <20%)"
same,"Over-expression category of source gene (target coverage), READ",source genes (mRNA) [1]; same cutoff,"B (>= 20% of tumors above the cutoff, but <50%)"
same,"Over-expression category of source gene (target coverage), SKCM",source genes (mRNA) [1]; same cutoff,"C (>=5% of tumors above the cutoff, but <20%)"
same,"Over-expression category of source gene (target coverage), STAD",source genes (mRNA) [1]; same cutoff,"B (>= 20% of tumors above the cutoff, but <50%)"
same,"Over-expression category of source gene (target coverage), UCEC",source genes (mRNA) [1]; same cutoff,"B (>= 20% of tumors above the cutoff, but <50%)"
same,Expression score BRCA,source genes (mRNA) [2],+
same,Expression score AML,source genes (mRNA) [2],+
same,Expression score CRC,source genes (mRNA) [2],+
same,Expression score OSCAR,source genes (mRNA) [2],++
same,Expression score GBC_CCC,source genes (mRNA) [2],+
same,Expression score GC,source genes (mRNA) [2]; gastric cancer (N = 11) vs panel of normal tissues,+
same,Expression score GB,source genes (mRNA) [2],+
same,Expression score NHL,source genes (mRNA) [2],+++
same,Expression score NSCLC,source genes (mRNA) [2],++
same,Expression score OC,source genes (mRNA) [2],++
same,Expression score PC,source genes (mRNA) [2]; pancreatic cancer (N = 26) vs panel of normal tissues,+
same,Expression score RCC,source genes (mRNA) [2]; renal cell carcinoma (N = 10) vs panel of normal tissues,+
same,Expression score SCLC,source genes (mRNA) [2],+++
same,Expression score UBC,source genes (mRNA) [2]; urinary bladder cancer (N = 10) vs panel of normal tissues,+
same,Expression score UEC,source genes (mRNA) [2]; uterine cancer (N = 10) vs panel of normal tissues,++
